This is one part of the list. Values are raw readings; no control value is given beside them.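 Primary screen: polymyxin B was added at a level permeabilizing Salmonella outer membranes while sparing inner membranes. DMSO wells, both with and without polymyxin B, established maximum growth. Plate-to-plate variation meant each plate was ranked on its own, and the lowest-OD600 compounds were selected as hits.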
System: Salmonella enterica serovar Typhimurium SL1344
Experiment: bacterial growth OD600 after 18 h with compound and polymyxin B; higher = more bacterial growth (less inhibition)
Conditions: 50 µM, Mueller-Hinton broth

Cc1ccc2c(c1)CN(CC(=O)N1CCC(N3CCOCC3)CC1)CC(c1ccsc1)O2 (stereo unspecified)
bacterial growth OD600 (polymyxin B 0.75 µg/mL): 0.774

COc1ccccc1Oc1ncccc1CNC(=O)[C@@H]1CCC(=O)N1
bacterial growth OD600 (polymyxin B 0.75 µg/mL): 0.956

CCOc1ccccc1CN1CCC(CO)(CCOc2ccccc2)CC1
bacterial growth OD600 (polymyxin B 1 µg/mL): 0.753

O=C(NCC1(O)CCCCC1)c1cc(COc2ccccc2F)[nH]n1
bacterial growth OD600 (polymyxin B 1 µg/mL): 1.04

CC1(C)CC(C(=O)N2CCOc3ccc(CN4CCN(c5ccc(F)cc5)CC4)cc3C2)CCO1 (stereo unspecified)
bacterial growth OD600 (polymyxin B 0.75 µg/mL): 0.848

COc1cccc(C(=O)NCC2CCCN(Cc3cccc4nonc34)C2)c1OC (stereo unspecified)
bacterial growth OD600 (polymyxin B 1 µg/mL): 0.654

CCn1ccnc1CN(C)C(=O)c1cc(Cn2ccc3ccccc32)[nH]n1
bacterial growth OD600 (polymyxin B 0.75 µg/mL): 0.815

O=C(CC(c1ccccc1)c1ccccc1Cl)NCCN1CCCCC1=O (stereo unspecified)
bacterial growth OD600 (polymyxin B 1 µg/mL): 0.911

O=C1CCC(C(=O)N2CCCCO2)CN1CCN1CCOCC1 (stereo unspecified)
bacterial growth OD600 (polymyxin B 1 µg/mL): 0.867

COc1ccc(C(CC(=O)N2CCSCC2)c2ccccc2)cc1 (stereo unspecified)
bacterial growth OD600 (polymyxin B 1 µg/mL): 0.678

Cn1cc(CNC(=O)c2coc(COc3cccc(C(F)(F)F)c3)n2)cn1
bacterial growth OD600 (polymyxin B 1 µg/mL): 0.958

CO[C@H]1[C@H](NC(=O)C(C)C)c2ccccc2C12CCN(Cc1c[nH]nc1-c1cc(C)ccc1C)CC2
bacterial growth OD600 (polymyxin B 0.75 µg/mL): 0.847

Cn1cc(CCC(=O)N2CCc3[nH]nc(-c4ccc(Cl)cc4)c3C2)cn1
bacterial growth OD600 (polymyxin B 0.75 µg/mL): 0.915

CC(C)c1nc(CNC(=O)c2ccc(N(C)Cc3ccccc3)nc2)no1
bacterial growth OD600 (polymyxin B 1 µg/mL): 0.837

CCOC(=O)N1CCC(NC(=O)C2CC23CCN(C(=O)C(c2ccccc2)C2CCCC2)CC3)CC1 (stereo unspecified)
bacterial growth OD600 (polymyxin B 0.75 µg/mL): 0.012

Cc1nc(CNC2CCN(c3nc(C)c4cc(F)ccc4n3)CC2)nc2c1CCCC2
bacterial growth OD600 (polymyxin B 0.75 µg/mL): 0.013

OCCOc1ccccc1CN1CCCC(Nc2ccc(F)cc2)C1 (stereo unspecified)
bacterial growth OD600 (polymyxin B 1 µg/mL): 0.777

O=C(C[n+]1cc([O-])on1)NCc1cccnc1Oc1ccccc1
bacterial growth OD600 (polymyxin B 1 µg/mL): 0.96

Cc1cccc(CNC(=O)c2ccc(OC3CCN(S(C)(=O)=O)CC3)c(Cl)c2)n1
bacterial growth OD600 (polymyxin B 1 µg/mL): 0.965

COc1ccc(CN2CCN(Cc3cccc(C)c3)CC2CCO)cc1C (stereo unspecified)
bacterial growth OD600 (polymyxin B 1 µg/mL): 0.917

COCC1CCCN(Cc2ccc3c(c2)CN(C(=O)CCCCc2ccccc2)CCO3)C1 (stereo unspecified)
bacterial growth OD600 (polymyxin B 0.75 µg/mL): 0.778

Cc1ccc(CCNC(=O)C2CCC(=O)N(Cc3cccc(F)c3)C2)cc1 (stereo unspecified)
bacterial growth OD600 (polymyxin B 1 µg/mL): 0.847

COc1cc(CC2(CCC(=O)NCc3cc4cc(F)ccc4[nH]3)CCC(=O)N2)ccc1F (stereo unspecified)
bacterial growth OD600 (polymyxin B 0.75 µg/mL): 0.845

O=C(c1cccc(OC2CCN(Cc3cc4ccccc4o3)CC2)c1)N1CCCC1
bacterial growth OD600 (polymyxin B 1 µg/mL): 1.04

Cc1ccccc1CCNC(=O)c1coc(COc2ccc3c(c2)OCO3)n1
bacterial growth OD600 (polymyxin B 1 µg/mL): 0.314

COc1ccc(CN2CC[C@@H](N3CCN(c4ccccn4)CC3)[C@H](O)C2)cc1F
bacterial growth OD600 (polymyxin B 0.75 µg/mL): 0.832

O=C(CCC1CCN(C(=O)CCCc2ccccc2)CC1)Nc1ccccc1
bacterial growth OD600 (polymyxin B 1 µg/mL): 0.764

COC(=O)c1ccc(CN2CCN(Cc3ccc(OC)c(C)c3C)C(CCO)C2)cc1 (stereo unspecified)
bacterial growth OD600 (polymyxin B 1 µg/mL): 0.902

O=C(CCc1ccccn1)NC1CCCN(CCc2ccccc2)C1 (stereo unspecified)
bacterial growth OD600 (polymyxin B 1 µg/mL): 1.04

Cc1nc(CNc2nc3nonc3nc2N2CCSCC2)sc1C
bacterial growth OD600 (polymyxin B 0.75 µg/mL): 0.77

CS(=O)(=O)Nc1cc(C(=O)NCCCc2cccnc2)c2c(c1)ncn2CCc1ccccc1
bacterial growth OD600 (polymyxin B 0.75 µg/mL): 0.8

Reference: the supplement of paper PMC12889115
